Several values for one entry are separate records, joined by “and”; a condition that tells them apart may be missing. Equal values may be shown once. Where a name gives a salt, the structure may show the parent alone. This continues a long series; more values of the same kind are listed elsewhere.
Test system: male Fisher F-344 rats
Assay: Morphine intravenous self-administration
Format: in vivo, rat
Details: 40 mg/kg

With `CCC1CC2CC3c4[nH]c5ccc(O)cc5c4CCN(C2)C13` (centres unmarked) [Noribogaine, Noribogaine hydrochloride] the “self-administration per session, individual animals (Fig. S9a)” value (session 3) was 23 and the “self-administration per session, individual animals (Fig. S9a)” value (session 4) was 15 and 28 and 50 (3×) and 21 and 24 and 23.

From publication PMC11415492 (Nature Communications, 2024)
